In patent US20140127681A1:
These are yes or no findings as the source states them, for the method shown. Some binding calls cover weakened binding; strength is not graded here.

Protein sequences, listed by entry. Tags and fused reporters are not part of them.
UniProt P0CE48: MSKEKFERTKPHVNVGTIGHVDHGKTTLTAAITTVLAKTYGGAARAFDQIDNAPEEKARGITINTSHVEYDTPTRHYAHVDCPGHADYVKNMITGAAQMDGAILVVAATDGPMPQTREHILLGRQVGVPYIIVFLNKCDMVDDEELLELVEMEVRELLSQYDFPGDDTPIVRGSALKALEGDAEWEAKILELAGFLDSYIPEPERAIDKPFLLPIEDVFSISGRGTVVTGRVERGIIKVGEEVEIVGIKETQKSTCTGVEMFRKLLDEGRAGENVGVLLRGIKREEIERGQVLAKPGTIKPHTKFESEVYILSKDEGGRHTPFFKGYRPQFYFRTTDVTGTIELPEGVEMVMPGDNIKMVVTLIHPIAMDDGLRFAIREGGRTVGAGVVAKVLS
UniProt P0A6P1: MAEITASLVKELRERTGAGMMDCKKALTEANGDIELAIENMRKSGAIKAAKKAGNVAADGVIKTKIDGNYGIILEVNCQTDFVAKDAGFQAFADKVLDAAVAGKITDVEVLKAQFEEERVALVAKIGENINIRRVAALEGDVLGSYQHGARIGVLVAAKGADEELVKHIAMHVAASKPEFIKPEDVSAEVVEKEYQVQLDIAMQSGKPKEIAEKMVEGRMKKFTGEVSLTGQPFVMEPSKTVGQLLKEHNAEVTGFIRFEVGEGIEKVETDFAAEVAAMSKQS

Key:
[1] = target: 6-His tagged ACP-EF-Tu (EF-Tu with an N-terminal histidine tag and a C-terminal AcpS tag) (E. coli) (UniProt P0CE48); experiment: nickel-NTA capture by the His tag of dye-labelled EF-Tu, eluted as a complex with EF-Ts
[2] = target: EF-Tu (Example 9, purified by Ni-NTA affinity chromatography) (E. coli) (UniProt P0CE48); experiment: EF-Tu mixed with EF-Ts (1:1.1) at 37 C for 20 min, then Sephadex 75 gel filtration
[3] = target: 6-His tagged ACP-EF-Tu (EF-Tu with an N-terminal histidine tag and a C-terminal AcpS tag) (E. coli) (UniProt P0CE48); experiment: co-incubation at 37 C for 30 min with 1.2 molar excess of EF-Ts, then Sephadex 75 gel filtration
[4] = target: cleaved native EF-Tu (E. coli) (UniProt P0CE48); experiment: as above

Measured: binding

Elongation Factor-Ts (EF-Ts) (from UniProt P0A6P1 1-283)
binds: all assays above
